{
  "source": "paper PMC9290910",
  "about": "“Neuropilin‐1 is required for endothelial cell adhesion to soluble vascular endothelial growth factor receptor 1” (The Febs Journal, 2021)",
  "target": "T1, Recombinant human NRP‐1 (human) (UniProt O14786)",
  "T1 sequence": "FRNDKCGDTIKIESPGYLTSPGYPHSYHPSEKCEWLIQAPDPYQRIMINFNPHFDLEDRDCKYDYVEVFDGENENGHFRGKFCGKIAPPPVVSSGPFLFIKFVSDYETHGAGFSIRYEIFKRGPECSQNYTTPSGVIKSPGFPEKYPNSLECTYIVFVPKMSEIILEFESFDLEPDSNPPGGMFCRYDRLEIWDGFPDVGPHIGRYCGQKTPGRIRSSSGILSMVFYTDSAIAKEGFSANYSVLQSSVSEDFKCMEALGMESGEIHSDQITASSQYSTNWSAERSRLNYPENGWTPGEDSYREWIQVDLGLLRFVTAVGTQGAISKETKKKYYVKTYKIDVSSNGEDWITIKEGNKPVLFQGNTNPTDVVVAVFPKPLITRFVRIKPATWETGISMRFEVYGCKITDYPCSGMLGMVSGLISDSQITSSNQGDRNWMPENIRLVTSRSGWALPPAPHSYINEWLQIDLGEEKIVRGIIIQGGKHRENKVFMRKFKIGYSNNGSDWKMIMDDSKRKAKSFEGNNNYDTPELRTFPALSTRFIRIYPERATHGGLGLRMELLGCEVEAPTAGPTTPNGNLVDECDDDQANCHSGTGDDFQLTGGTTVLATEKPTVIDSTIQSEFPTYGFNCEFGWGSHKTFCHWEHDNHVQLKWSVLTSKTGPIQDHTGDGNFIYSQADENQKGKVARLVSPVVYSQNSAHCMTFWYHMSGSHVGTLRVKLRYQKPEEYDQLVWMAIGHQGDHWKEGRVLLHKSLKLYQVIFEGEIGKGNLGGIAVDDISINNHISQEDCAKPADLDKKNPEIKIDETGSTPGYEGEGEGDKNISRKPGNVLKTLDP",
  "experiment": "SPR; competition: NRP-1 immobilised by amine coupling; protein analyte at a fixed concentration (VEGFR-1/Fc 5 nM; α5β1 integrin 200 nM; semaphorin 3A 200 nM) injected together with peptide at different concentrations; HEPES-buffered saline; both purified",
  "note": "Results are given in words; binding and its absence hold for the method and conditions named. A result given as binding can be weak or reduced; the word gives no strength.",
  "data": [
    {"substance": "Purified α5β1 integrin (complex)", "values": [
      {"measurement": "binding", "result": "binds"}
    ]}
  ]
}
